Reference: PMC4043117
These are yes or no findings as the source states them, for the method shown. Binding seen in cells or lysates may run through a third protein. These calls come from enrichment with a bait or labelling near it, and not all partners need be listed. For some assays here: Sequences can lack the tags named with a protein. Blank lines part the entries; values can stand above or below the molecule they belong to.

Protein sequences, listed by entry. Tags and fused reporters are not part of them. Lines headed by an entry give the natural chain unless they say otherwise; changes in a name come on top.
UniProt O94682: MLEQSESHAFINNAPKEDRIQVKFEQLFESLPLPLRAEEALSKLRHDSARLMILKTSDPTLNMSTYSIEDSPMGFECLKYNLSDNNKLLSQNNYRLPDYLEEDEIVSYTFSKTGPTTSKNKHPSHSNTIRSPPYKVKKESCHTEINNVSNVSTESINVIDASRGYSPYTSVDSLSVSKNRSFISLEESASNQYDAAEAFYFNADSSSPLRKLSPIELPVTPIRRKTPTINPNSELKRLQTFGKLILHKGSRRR
UniProt O42995: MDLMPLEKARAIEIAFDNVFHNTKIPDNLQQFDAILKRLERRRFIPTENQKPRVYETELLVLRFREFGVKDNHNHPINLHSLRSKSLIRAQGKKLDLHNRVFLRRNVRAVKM

Columns and labels:
Mis18-Myc (S. pombe) = target: T1, Mis18-Myc (S. pombe) (UniProt Q9P802); assay: affinity purification with mass spectrometry; 5 g pulverized S. pombe cells expressing Myc-tagged Mis16 or Mis18; anti-Myc 9E10 on Protein G Dynabeads; untagged control; on-bead tryptic digestion, LC-MS/MS; three replicates
T1 sequence: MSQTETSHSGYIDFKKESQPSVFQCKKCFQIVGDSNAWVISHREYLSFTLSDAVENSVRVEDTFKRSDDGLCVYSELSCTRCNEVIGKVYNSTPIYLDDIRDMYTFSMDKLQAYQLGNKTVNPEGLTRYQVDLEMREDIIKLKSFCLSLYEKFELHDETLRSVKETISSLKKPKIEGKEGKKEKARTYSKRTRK

Mis16-Myc (S. pombe) = target: T2, Mis16-Myc (S. pombe) (UniProt O94244); assay: as above
T2 sequence: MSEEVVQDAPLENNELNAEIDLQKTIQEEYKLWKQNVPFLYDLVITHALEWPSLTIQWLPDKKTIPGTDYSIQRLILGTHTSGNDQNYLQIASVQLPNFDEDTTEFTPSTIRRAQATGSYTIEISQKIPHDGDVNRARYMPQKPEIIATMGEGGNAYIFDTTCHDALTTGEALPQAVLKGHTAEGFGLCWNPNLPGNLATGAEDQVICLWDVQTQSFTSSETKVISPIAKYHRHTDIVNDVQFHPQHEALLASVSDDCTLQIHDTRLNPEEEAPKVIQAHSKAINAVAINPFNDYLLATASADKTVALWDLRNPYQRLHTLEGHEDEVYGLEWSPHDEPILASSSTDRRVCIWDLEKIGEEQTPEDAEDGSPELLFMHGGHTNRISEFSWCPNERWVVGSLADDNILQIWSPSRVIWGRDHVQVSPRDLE

Eic2-GFP (S. pombe) = Eic2-GFP (S. pombe) (UniProt O94682); assay: affinity purification with mass spectrometry; 5 g pulverized S. pombe cells expressing GFP-tagged Eic1 or Eic2; anti-GFP A11122 on Protein G Dynabeads; untagged control; on-bead tryptic digestion, LC-MS/MS; three replicates
Eic1-GFP (S. pombe) = Eic1-GFP (S. pombe) (UniProt O42995); assay: as above
Hat1-HA (S. pombe) = target: T3, Hat1-HA (S. pombe) (UniProt Q9UTM7); assay: affinity purification with mass spectrometry; Hat1-HA immunoprecipitates from S. pombe subjected to LC/MS-MS
T3 sequence: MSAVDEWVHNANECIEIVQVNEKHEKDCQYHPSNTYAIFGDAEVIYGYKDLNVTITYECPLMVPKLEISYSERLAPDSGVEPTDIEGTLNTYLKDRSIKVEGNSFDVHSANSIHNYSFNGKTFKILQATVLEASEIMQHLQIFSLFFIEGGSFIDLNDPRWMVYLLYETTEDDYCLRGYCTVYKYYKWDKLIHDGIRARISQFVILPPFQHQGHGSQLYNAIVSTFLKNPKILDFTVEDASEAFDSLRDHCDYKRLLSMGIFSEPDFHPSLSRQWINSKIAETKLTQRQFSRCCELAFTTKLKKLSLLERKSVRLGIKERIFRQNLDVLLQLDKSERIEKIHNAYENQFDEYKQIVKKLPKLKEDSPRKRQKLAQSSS

[1] = target: T4, Mis16-Myc (S. pombe), O94244; assay: affinity purification with mass spectrometry; 5 g pulverized S. pombe cells expressing Myc-tagged Mis16 or Mis18; anti-Myc 9E10 on Protein G Dynabeads; untagged control; on-bead tryptic digestion, LC-MS/MS; three replicates; details: remark: other sources report otherwise
T4 chain: T2 sequence

binding (Mis18-Myc (S. pombe)): binds
Molecule: Eic2 (Eighteen Interacting Centromere protein 2) (from UniProt O94682)

binding (Mis16-Myc (S. pombe)): binds
binding (Mis18-Myc (S. pombe)): binds
binding (Eic2-GFP (S. pombe)): binds
Molecule: Eic1 (Eighteen Interacting Centromere protein 1) (from UniProt O42995)

binding (Eic1-GFP (S. pombe)): binds
B1: Fta7^CENP-Q/Okp1 (protein, UniProt O74844 1-244)
chain: MEMKRRVRAVRRDQIQKRWRPLEDKQRQEIIIIFRTCSRLVLNTIKSETRKSLAEEWFMNILLKIEAPLRNLPVPRKRKESILFSQLLSSNMQLEQQLYSDLDHINVLQQELKVETARLENEQKSYEEMKQNMAINNSRLADLKSKLHPYLKKGLKISHDNFSDSNDFSFQKKLNTEDSNTSKTSTLDMYKEKLKPFTKTMQIHANKTVQLSQTIQKATLLLQRLNNTKNIGLNKSSKLKIKNI

binding (Hat1-HA (S. pombe)): binds
B2: Mis16^RbAp46/48/Hat2 (protein, UniProt O94244 1-430)
chain: T2 sequence

binding (Eic1-GFP (S. pombe)): binds
B3: Cnl2^Nkp2 (protein, UniProt O13952 1-188)
chain: MNMEEQILNDYLLSQGRLQSIISLEQWRQLFPQRYREDPLIERLYEYCTQQRQKRLAKLRANIHLESQVIGKSRIDRMLATNVEKLQTVSHASTLHDVEEFYTSHSAKPLDISEINERLSEAVQSAYTKLNEEKERCTQLTLKMNSQIASLSDFQWSKEPNVDESIHLVESLIESLEKAAPSAIEELD

binding (Mis16-Myc (S. pombe)): binds
B4: histone H4 acetyltransferase Hat1 (protein, UniProt Q9UTM7 1-378)
chain: T3 sequence

binding (Eic1-GFP (S. pombe)): binds
B5: Mal2^CENP-O/Mcm21 (protein, UniProt Q10290 1-303)
chain: MDDEEGNATLIDEISVLEARRDVLLDELKSLDNATLSDLVQKPELSKNLSVNNEFLKETPLNQPALHYDRLSGISFFQPNDPEELSRKTLLVKNKKTGAIETAPSIPLLGVRFDIMLNPVNIGFTNLSENPISSASGMDEELEGGNRFDVPYYIIFRVFHDSFALYKYTIPSFLNIQEWADEYLTGKNPERFRIFLWKVDKLLTAYICRKNALLQINKSLTIDGTNISANLSCTHLVIQIPKVIQATLVCSSESTRVVKSRIYQYSDENWKRDHRLELSLLDNKRWVNILVSHLTAPESHASL

binding [1]: binds
B6: Mis18, Q9P802 1-194 (protein)
chain: T1 sequence

binding (Eic2-GFP (S. pombe)): binds
B7: Mis18 (protein, UniProt Q9P802 1-194)
chain: T1 sequence
